Laboratory results from patent publication US8278473B2, “Alpha, beta-unsaturated imidate compound and pesticidal composition containing the same” (Sumitomo Chemical Company, Limited, priority 2007, dated 2012).
Some entries share one result that the patent states for a list of compounds. For some assays here: The name of at least one read-out is uncertain. Some compounds share one range, which may span the group rather than tell each member.

Key:
Assay type in all cases: in vivo
Aphis gossypii = assay: Test Example 3: Aphis gossypii, spray on cucumber leaves; details: 500 ppm test solution, 20 mL sprayed on cucumber; imagoes and larvae; after 6 days
Nilaparvata lugens = assay: Test Example 4: Nilaparvata lugens, spray on rice plant; details: 500 ppm test solution, 20 mL/pot sprayed on rice; first-instar larvae; after 6 days
Spodoptera litura = assay: Test Example 1: Spodoptera litura, artificial diet/filter paper test; details: 500 ppm test solution, 2 mL; fourth-instar larvae; after 6 days
Culex pipiens pallens = assay: Test Example 7: Culex pipiens pallens larvae in treated water; details: active ingredient concentration 3.5 ppm in water; last-instar larvae; after 1 day
Plutella xylostella = assay: Test Example 9: Plutella xylostella, spray on cabbage; details: 500 ppm test solution, 20 mL sprayed on cabbage; second-instar larvae; 25° C.; after 5 days
Adoxophyes orana = assay: Test Example 2: Adoxophyes orana, artificial diet/filter paper test; details: 500 ppm test solution, 1 mL; first-instar larvae; after 7 days
Musca domestica = assay: Test Example 5: Musca domestica, filter paper with sucrose bait; details: 500 ppm test solution, 0.7 ml on filter paper; female imagoes; after 24 hours
Blattalla germanica = assay: Test Example 6: Blattalla germanica, filter paper with sucrose bait; details: 500 ppm test solution, 0.7 ml on filter paper; male imagoes; after 6 days

SMILES | index in terms of survival rate (Aphis gossypii) | index in terms of survival rate (Nilaparvata lugens) | index in terms of death rate (Spodoptera litura) | index in terms of death rate (Culex pipiens pallens) | index in terms of death rate (Plutella xylostella) | index in terms of death rate (Adoxophyes orana) | index in terms of death rate (Musca domestica) | index in terms of death rate (Blattalla germanica)
CC(=COc1cccc(C)c1)C(=Nc1ccccc1)Oc1cccc(-c2ccccc2)c1 [Compound 180, 3-phenylphenyl 2-methyl-3-(3-methylphenyloxy)-N-phenyl-2-propenimidate] | 3 (3: 1 to 10%) | 3 (3: 1 to 10%) | 3 (3: 80 to 99%) | 4 (4: 91 to 100%) | 3 (3: 80 to 99%) | 3 (3: 80 to 99%) | – | –
CC(=COc1cccc(C)c1)C(=Nc1ccc(C)cc1)Oc1cccc(Oc2ccccc2)c1 [Compound 187, 3-phenoxyphenyl 2-methyl-N-(4-methylphenyl)-3-(3-methylphenyloxy)-2-propenimidate] | 3 (3: 1 to 10%) | 3 (3: 1 to 10%) | 3 (3: 80 to 99%) | 4 (4: 91 to 100%) | 3 (3: 80 to 99%) | 3 (3: 80 to 99%) | – | –
CCOc1cccc(OC(=Nc2ccc(OC)cc2)C(C)=COc2cccc(C)c2)c1 [Compound 191, 3-ethoxyphenyl N-(4-methoxyphenyl)-2-methyl-3-(3-methylphenyloxy)-2-propenimidate] | 3 (3: 1 to 10%) | 3 (3: 1 to 10%) | 3 (3: 80 to 99%) | 4 (4: 91 to 100%) | 3 (3: 80 to 99%) | 3 (3: 80 to 99%) | 3 (3: 70 to 99%) | –
CC(=COc1ccc(C)cc1)C(=Nc1ccccc1)Oc1ccccc1Cl [Compound 200, 2-chlorophenyl 2-methyl-3-(4-methylphenyloxy)-N-phenyl-2-propenimidate] | – | 3 (3: 1 to 10%) | 3 (3: 80 to 99%) | 4 (4: 91 to 100%) | 3 (3: 80 to 99%) | 3 (3: 80 to 99%) | – | –
CC(=COc1ccc(C)cc1)C(=Nc1ccc(C)cc1)Oc1ccccc1C [Compound 209, 2-methylphenyl 2-methyl-N-(4-methylphenyl)-3-(4-methylphenyloxy)-2-propenimidate] | 3 (3: 1 to 10%) | 3 (3: 1 to 10%) | 3 (3: 80 to 99%) | 4 (4: 91 to 100%) | 3 (3: 80 to 99%) | 3 (3: 80 to 99%) | 3 (3: 70 to 99%) | –
CC(=COc1ccc(C)cc1)C(=Nc1ccc(C)cc1)Oc1ccccc1F [Compound 213, 2-fluorophenyl 2-methyl-N-(4-methylphenyl)-3-(4-methylphenyloxy)-2-propenimidate] | 3 (3: 1 to 10%) | 3 (3: 1 to 10%) | 3 (3: 80 to 99%) | 4 (4: 91 to 100%) | 3 (3: 80 to 99%) | 3 (3: 80 to 99%) | 3 (3: 70 to 99%) | –
CC(=COc1ccc(C)cc1)C(=Nc1ccc(C)cc1)Oc1ccc2ccccc2c1 [Compound 223, 2-naphthyl 2-methyl-N-(4-methylphenyl)-3-(4-methylphenyloxy)-2-propenimidate] | – | 3 (3: 1 to 10%) | 3 (3: 80 to 99%) | – | 3 (3: 80 to 99%) | 3 (3: 80 to 99%) | 3 (3: 70 to 99%) | –
COc1ccc(N=C(Oc2ccccc2)C(C)=COc2ccc(C)cc2)cc1 [Compound 224, phenyl N-(4-methoxyphenyl)-2-methyl-3-(4-methylphenyloxy)-2-propenimidate] | 3 (3: 1 to 10%) | – | 3 (3: 80 to 99%) | 4 (4: 91 to 100%) | 3 (3: 80 to 99%) | 3 (3: 80 to 99%) | 3 (3: 70 to 99%) | 4 (4: 100%)
COc1ccc(N=C(Oc2cccc(C)c2)C(C)=COc2ccc(C)cc2)cc1 [Compound 225, 3-methylphenyl N-(4-methoxyphenyl)-2-methyl-3-(4-methylphenyloxy)-2-propenimidate] | 3 (3: 1 to 10%) | – | 3 (3: 80 to 99%) | 4 (4: 91 to 100%) | 3 (3: 80 to 99%) | 3 (3: 80 to 99%) | 3 (3: 70 to 99%) | 4 (4: 100%)
CCOc1cccc(OC(=Nc2ccc(C)cc2)C(C)=COc2ccccc2OC)c1 [Compound 243, 3-ethoxyphenyl 3-(2-methoxyphenyloxy)-2-methyl-N-(4-methylphenyl)-2-propenimidate] | 3 (3: 1 to 10%) | 3 (3: 1 to 10%) | 3 (3: 80 to 99%) | 4 (4: 91 to 100%) | 3 (3: 80 to 99%) | 3 (3: 80 to 99%) | 3 (3: 70 to 99%) | –
COc1ccc(OC=C(C)C(=Nc2ccccc2)Oc2ccccc2)cc1 [Compound 262, phenyl 3-(4-methoxyphenyloxy)-2-methyl-N-phenyl-2-propenimidate] | 3 (3: 1 to 10%) | – | 3 (3: 80 to 99%) | 4 (4: 91 to 100%) | 3 (3: 80 to 99%) | 3 (3: 80 to 99%) | 3 (3: 70 to 99%) | 4 (4: 100%)
COc1ccc(OC=C(C)C(=Nc2ccccc2)Oc2ccc(C)cc2)cc1 [Compound 264, 4-methylphenyl 3-(4-methoxyphenyloxy)-2-methyl-N-phenyl-2-propenimidate] | 3 (3: 1 to 10%) | – | 3 (3: 80 to 99%) | 4 (4: 91 to 100%) | 3 (3: 80 to 99%) | 3 (3: 80 to 99%) | 3 (3: 70 to 99%) | 4 (4: 100%)
COc1ccc(OC=C(C)C(=Nc2ccc(C)cc2)Oc2ccccc2)cc1 [Compound 269, phenyl 3-(4-methoxyphenyloxy)-2-methyl-N-(4-methylphenyl)-2-propenimidate] | 3 (3: 1 to 10%) | – | 3 (3: 80 to 99%) | 4 (4: 91 to 100%) | 3 (3: 80 to 99%) | 3 (3: 80 to 99%) | 3 (3: 70 to 99%) | 4 (4: 100%)
COc1ccc(N=C(Oc2cccc(C)c2)C(C)=COc2ccc(OC)cc2)cc1 [Compound 277, 3-methylphenyl N-(4-methoxyphenyl)-3-(4-methoxyphenyloxy)-2-methyl-2-propenimidate] | 3 (3: 1 to 10%) | – | 3 (3: 80 to 99%) | 4 (4: 91 to 100%) | 3 (3: 80 to 99%) | 3 (3: 80 to 99%) | 3 (3: 70 to 99%) | 4 (4: 100%)
COc1ccc(OC=C(C)C(=Nc2ccc(C)c(C)c2)Oc2cc(C)cc(C)c2)cc1 [Compound 287, 3,5-dimethylphenyl N-(3,4-dimethylphenyl)-3-(4-methoxyphenyloxy)-2-methyl-2-propenimidate] | 3 (3: 1 to 10%) | – | 3 (3: 80 to 99%) | 4 (4: 91 to 100%) | 3 (3: 80 to 99%) | 3 (3: 80 to 99%) | 3 (3: 70 to 99%) | 4 (4: 100%)
CC(=COc1ccc(-c2ccccc2)cc1)C(=Nc1ccccc1)Oc1ccccc1 [Compound 290, phenyl 2-methyl-N-phenyl-3-(4-phenylphenyloxy)-2-propenimidate] | 3 (3: 1 to 10%) | – | 3 (3: 80 to 99%) | 4 (4: 91 to 100%) | 3 (3: 80 to 99%) | 3 (3: 80 to 99%) | 3 (3: 70 to 99%) | 4 (4: 100%)
CC(=COc1ccc2c(c1)OCCO2)C(=Nc1ccccc1)Oc1ccccc1 [Compound 296, phenyl 3-(3,4-(ethylenedioxy)phenyloxy)-2-methyl-N-phenyl-2-propenimidate] | 3 (3: 1 to 10%) | – | 3 (3: 80 to 99%) | 4 (4: 91 to 100%) | 3 (3: 80 to 99%) | 3 (3: 80 to 99%) | 3 (3: 70 to 99%) | 4 (4: 100%)
